Data published in patent US20150306112A1 (National Cheng Kung University, priority 2014, published 2015).
At least one compound was matched to its structure with a doubt left.

Tested on: JAK2, STAT3, STAT5 and LMO2 in HepG2 cells
Assay: Immunoblot of JAK2/STAT3/STAT5/LMO2 in HepG2 cells
Format: cell-based, human
Settings: 20 μM, 48 h
Experimental: FIG. 3. […] Total cell lysates were examined for the indicated proteins by immunoblotting. (B) Jurkat cells were transfected with p-GAS-Luc plasmids. […] Total cell lysates were harvested, and their luciferase activities were determined and normalised to the total protein. […] Total mRNA was prepared, and the mRNA levels of IRF-1 and SOCS-1 were detected by RT-PCR. GAPDH was used as the reference band. […] Total cell lysates were examined for the indicated proteins by immunoblotting. β-actin was used as internal control. […] Total cell lysates were examined for the indicated proteins by immunoblotting. All data are one of three independent experiments with similar results.
As JAK2/STAT3 signaling has a role in human hepatoma HepG2 cell proliferation, JAK2 activation promotes recruitment to the receptor complex of STAT3 and STAT5 [32], and LMO2 expression.

Compound: N#CC[C@H](C1CCCC1)n1cc(-c2ncnc3[nH]ccc23)cn1 [ruxolitinib, reference compound]
- phosphorylation of JAK2, STAT3 and STAT5, and LMO2 expression: effectively inhibit
